From PubChem BioAssay AID445 (National Center for Advancing Translational Sciences (NCATS), 2006)
This is one part of the list. Shown are side measurements of this screen, not its main read-out; they come without a call. Compounds called inactive in the main read-out are mostly missing here. Words in brackets tell the shape of the fitted curve; partial curves, single points and poor fits give uncertain potencies.

Test: IkB Signaling
Conditions: ABC-DLBCL IkBa-CBG/CBR dual luciferase ratio (green luciferase fused to IkBa over red control in OCI-Ly3 lymphoma cells), 4 h
Summary of the method: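 Luminescence ratio of IκBα-fused green versus native red beetle luciferase in OCI-Ly3 cells, 4 h post-doxycycline with compound; red signal alone, scaled from basal (0%) to zero light (-100%), flagged nonspecific or cytotoxic effects.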

[1] = measured here: control luc red channel unless noted

COc1cccc(NC(=O)Cn2c(=O)n(-c3ccc(CC(=O)NCC4CCCO4)cc3)c(=O)c3ccccc32)c1 (stereo not drawn)
AC50 [1]: 10 µM [falling, partial curve, poor fit]

COc1cc(NC(=O)CSCc2cnn(-c3ccccc3)c2-n2cccc2)cc(OC)c1
AC50 [1]: 15.8 µM [falling, partial curve]

Cc1cc(C)cc(NC(=O)NCCn2nnc3cc(S(=O)(=O)N(C)C)ccc32)c1
AC50 [1]: 31.6 µM [falling, single point]

CSc1nc(C)c(C(=O)Nc2ccccc2)c(C)c1C#N
AC50 [1]: 15.8 µM [falling, partial curve]

CCOc1ccc(C(=O)OCc2cc(=O)n3nc(C4CCCCC4)sc3n2)cc1
AC50 [1]: 10 µM [falling, single point]

COc1ccc(C2c3c(-c4ccccc4O)n[nH]c3C(=O)N2Cc2ccco2)cc1 (stereo not drawn)
AC50 [1]: 25.1 µM [falling, single point]

O=C(Nc1ccccc1C(=O)OCc1cc(=O)n2nc(C3CC3)sc2n1)c1cccc(Cl)c1
AC50 [1]: 10 µM [falling, partial curve]

Cc1ccc(Cl)cc1NC(=O)Cn1c(=O)c(CNc2ccccc2)cc2cc3c(cc21)OCCO3
AC50 [1]: 12.6 µM [falling, partial curve]

CCCCn1c(-c2ccc(S(=O)(=O)N3CCOCC3)cc2)csc1=Nc1ccccc1
AC50 [1]: 3.98 µM [falling, full curve]

CCN(c1cccc(C)c1)S(=O)(=O)c1nnc(NC(=O)c2cccs2)s1
AC50 [1]: 0.794 µM [rising, full curve]

O=C(CCCn1c(=O)c2cccn2c2cccnc21)NCCc1ccc(Cl)cc1
AC50 [1]: 39.8 µM [falling, single point]

Cc1cc(Br)ccc1NC(=O)c1cc2c(s1)-c1ccccc1SC2
AC50 [1]: 10 µM [falling, partial curve]

CCOC(=O)c1ccccc1NC(=O)CN(c1ccccc1OC)S(=O)(=O)c1ccc(C)cc1
AC50 [1]: 1 µM [falling, full curve, poor fit]

CS(=O)(=O)N(CC(=O)N1CCN(c2ccccc2)CC1)c1cc(C(F)(F)F)ccc1Cl
AC50 [1]: 10 µM [falling, partial curve]

COc1ccc(NS(=O)(=O)c2nnc(NC(=O)c3ccccc3F)s2)cc1
AC50 [1]: 2.51 µM [rising, partial curve]

COc1cc(/C=C/c2nc(C#N)c(NC3CCCCC3)o2)cc(OC)c1OC
AC50 [1]: 20 µM [falling, partial curve]

O=C(/C=C/c1cn(CC(O)CN2CCCCCC2)c2ccccc12)c1ccccc1 (stereo not drawn)
AC50 [1]: 10 µM [falling, partial curve]

Cc1ccc(CNc2nc3c(S(=O)(=O)c4ccccc4)nnn3c3ccsc23)cc1
AC50 [1]: 0.631 µM [rising, full curve]

Cc1ccccc1C(=O)Nc1ccc(Br)cn1
AC50 [1]: 7.94 µM [falling, partial curve]

Cc1ccc(C)c(NC(=O)CSc2cn(CC(=O)N3CCCC3)c3ccccc23)c1
AC50 [1]: 25.1 µM [falling, single point]

CCOc1ccccc1C1C(C(=O)Nc2ccccc2OC)=C(C)Nc2nc3ccccc3n21 (stereo not drawn)
AC50 [1]: 12.6 µM [falling, partial curve]

Cc1ccc2nc(NC(=O)c3cc(=O)c4cc(C)c(C)cc4o3)sc2c1
AC50 [1]: 3.98 µM [rising, partial curve]

CCc1nnc2c3ccccc3nc(N3CCN(c4ccc(C)cc4C)CC3)n12
AC50 [1]: 20 µM [falling, partial curve]

O=C(NCCc1csc(-c2cccnc2)n1)c1cccc(C(F)(F)F)c1
AC50 [1]: 39.8 µM [falling, single point]

COc1ccccc1CNC(=O)c1ccc(C)c(-n2cnc3cccnc32)c1
AC50 [1]: 3.16 µM [falling, partial curve]

Cc1occc1-c1nnc(SCC(=O)c2cc3ccccc3oc2=O)o1
AC50 [1]: 2 µM [falling, full curve]

CN1CCN(C(c2ccccc2)c2sc3nc(-c4ccco4)nn3c2O)CC1 (stereo not drawn)
AC50 [1]: 15.8 µM [rising, partial curve]

O=C(O)c1cc(N=Nc2ccc([N+](=O)[O-])cc2)ccc1O
AC50 [1]: 10 µM [falling, partial curve]

COc1ccc(-c2cc(C(=O)NCc3ccc(Cl)cc3)no2)cc1OC
AC50 [1]: 5.01 µM [falling, partial curve]

Cc1cc(Br)ccc1NC(=O)CCS(=O)(=O)c1cccc2nonc12
AC50 [1]: 25.1 µM [rising, partial curve]

COc1ccc(Cl)cc1NS(=O)(=O)c1cc(-c2cc(C)no2)ccc1C
AC50 (measured here: IkB-luc green channel): 25.1 µM [rising, single point] | AC50 (measured here: control luc red channel): 3.98 µM [rising, full curve, poor fit]

Cc1cc(C)c(Cn2c(C)c(CNCCCc3ccccc3)c(C(=O)O)c2C)c(C)c1
AC50 [1]: 31.6 µM [falling, single point]

Cc1ccc(C)c(N2CCN(C(=O)CN3C(=O)COc4ccc(S(=O)(=O)N5CCCCCC5)cc43)CC2)c1
AC50 [1]: 7.94 µM [falling, partial curve]

COc1ccc(-c2cc(C(=O)Nc3c(C(=O)c4ccc(Cl)cc4)oc4ccccc34)no2)cc1
AC50 [1]: 6.31 µM [rising, single point]

COc1ccc(-c2nnc(-c3cccs3)o2)cc1OC
AC50 [1]: 20 µM [falling, single point]

CCC1CN(C(=O)N2CCC(C(=O)NCc3ccc(C)o3)CC2)c2cc(C)ccc2O1 (stereo not drawn)
AC50 [1]: 0.398 µM [falling, full curve]

CCOC(=O)c1ccc(NC(=O)Nc2ccc3c(c2)OCCO3)cc1
AC50 [1]: 12.6 µM [falling, partial curve]

CC[C@H](NC(=O)c1c(C)c(-c2ccccc2)nc2ccccc12)c1ccccc1
AC50 [1]: 15.8 µM [falling, partial curve]

COc1ccc(C(=O)NCCc2sc(-c3cccc(F)c3)nc2C)cc1
AC50 [1]: 20 µM [falling, partial curve]

Cc1nc2ccn(Cc3cccnc3)c(=O)c2cc1C(=O)Nc1ccc(OC(F)(F)F)cc1
AC50 [1]: 0.398 µM [falling, full curve, poor fit]

COCC(C)NC(=O)c1cc(-c2ccccc2OC)on1 (stereo not drawn)
AC50 [1]: 0.0631 µM [falling, full curve]

CC1CCc2nc(NC(=O)COc3ccc(C(C)(C)C)cc3)sc2C1 (stereo not drawn)
AC50 [1]: 3.16 µM [falling, partial curve]

COc1ccc(OC)c(C2CC(=O)c3c([nH]c(C(=O)OCC4CCCCC4)c3C)C2)c1 (stereo not drawn)
AC50 [1]: 1.58 µM [rising, full curve, poor fit]

CC(=O)c1cccc(NC(=O)CCS(=O)(=O)c2cc(Br)cc3c2N(C(=O)C2CC2)CC3)c1
AC50 [1]: 39.8 µM [falling, single point]

CC(C)(C)NC(=O)CN(C(=O)CS(=O)CC(=O)Nc1ccc(F)cc1)c1ccc(Cl)cc1 (stereo not drawn)
AC50 [1]: 15.8 µM [falling, partial curve]

N#Cc1ccccc1NC(=O)C(=O)NCC(c1cccnc1)N1CCc2ccccc2C1 (stereo not drawn)
AC50 [1]: 6.31 µM [rising, single point]

COc1ccc(OC)c(CCNC(=O)C(C)n2nc(C)c3c(C)n(-c4ccc(C)cc4)nc3c2=O)c1 (stereo not drawn)
AC50 [1]: 6.31 µM [falling, partial curve]

CCOc1ccccc1NC(=O)C1CCCN(S(=O)(=O)c2ccc3c(c2)CCCN3C(C)=O)C1 (stereo not drawn)
AC50 [1]: 39.8 µM [falling, single point]

CCc1ccc(S(=O)(=O)c2nnn3c2nc(Nc2cccc(C)c2C)c2sccc23)cc1
AC50 [1]: 15.8 µM [falling, partial curve]

COc1cc(-c2nnc(SCC(=O)N3CCCc4ccccc43)o2)cc(OC)c1OC
AC50 [1]: 10 µM [falling, partial curve, poor fit]

CCN(C(=O)Cn1nc(Cc2cccnc2)c2ccccc2c1=O)c1cc(C)ccc1C
AC50 [1]: 12.6 µM [falling, single point]

CSc1ccccc1NC(=O)CCS(=O)(=O)c1nc(-c2cccs2)cc(C(F)(F)F)n1
AC50 [1]: 3.98 µM [falling, full curve]

CCn1c(C(=O)Nc2cc(C)cc(C)c2)cc2sc(Cl)cc21
AC50 [1]: 0.01 µM [falling, full curve, poor fit]

CCN(CC)CCOC(=O)c1ccc(NC(=O)CCn2c(=O)oc3ccccc32)cc1
AC50 [1]: 5.01 µM [rising, full curve, poor fit]

CCOC(=O)c1cccc(NC(=O)C2CCN(c3nnc(C)c4c(C)n(-c5ccccc5)nc34)CC2)c1
AC50 [1]: 20 µM [falling, partial curve]

COC(=O)c1sc(NC(=O)COc2ccccc2)nc1C
AC50 [1]: 2 µM [falling, partial curve]

COc1ccc(NCc2cccn2-c2nnc(N3CCOCC3)s2)c(OC)c1
AC50 [1]: 10 µM [falling, partial curve, poor fit]

O=C(NNc1ncnc2c1cnn2-c1ccccc1)c1ccccc1
AC50 [1]: 0.0316 µM [falling, full curve, poor fit]

COc1ccc(C(=O)Nc2ccc3nc(N4CCCCC4)cc(C)c3c2)c(OC)c1
AC50 [1]: 12.6 µM [falling, partial curve]

Cc1cn2c(=O)cc(COc3cccc(NC(=O)c4cccc(F)c4)c3)nc2s1
AC50 [1]: 2 µM [falling, full curve]

CCCc1oc2ccc(NS(=O)(=O)c3ccc(OC)cc3)cc2c1C(=O)OCC
AC50 [1]: 10 µM [falling, partial curve]

CCOC(=O)c1c(NC(C)=O)c2c3c(sc2n1Cc1cccc(Cl)c1)CCCC3
AC50 [1]: 3.98 µM [falling, partial curve]
